In paper PMC6118387, “In silico drug absorption tract: An agent-based biomimetic model for human oral drug absorption” (PLoS ONE, 2018):
Where “and” joins values, the source holds several entries; their conditions need not be identical. Equal values may be shown once. Further values from the same series stand in other lists.

Assay: Clinical bioequivalence study: plasma concentrations (LC-MS-MS) and noncompartmental PK after oral tablet
Type: in vivo, human

Q: Which “Concentration, individual subjects” value (clonazepam 2 mg oral, 0 h, one value per subject (A1-A6, A8, B1-B8; B5 consumed alcohol)) does the source give for `O=C1CN=C(c2ccccc2Cl)c2cc([N+](=O)[O-])ccc2N1` [Clonazepam, clonazepam] here?
A: 0.00 ng/mL

Q: What about the “Concentration, individual subjects” value (clonazepam 2 mg oral, 0.5 h, one value per subject (A1-A6, A8, B1-B8; B5 consumed alcohol)) of the same compound?
A: 3.46 ng/mL and 0.00 ng/mL (3×) and 5.06 ng/mL and 2.24 ng/mL and 1.91 ng/mL and 6.20 ng/mL and 23.99 ng/mL and 16.46 ng/mL and 2.94 ng/mL and 5.71 ng/mL and 16.30 ng/mL and 7.53 ng/mL and 7.99 ng/mL

Q: What about the “Concentration, individual subjects” value (clonazepam 2 mg oral, 1 h, one value per subject (A1-A6, A8, B1-B8; B5 consumed alcohol)) of the same compound?
A: 8.36 ng/mL and 9.10 ng/mL and 20.63 ng/mL and 7.46 ng/mL and 13.61 ng/mL and 4.16 ng/mL and 15.30 ng/mL and 10.14 ng/mL and 15.98 ng/mL and 14.52 ng/mL and 11.10 ng/mL and 10.42 ng/mL and 21.63 ng/mL and 21.76 ng/mL and 10.64 ng/mL

Q: What about the “Concentration, individual subjects” value (clonazepam 2 mg oral, 1.5 h, one value per subject (A1-A6, A8, B1-B8; B5 consumed alcohol)) of the same compound?
A: 16.41 ng/mL and 12.70 ng/mL and 19.41 ng/mL and 8.14 ng/mL and 10.90 ng/mL and 7.64 ng/mL and 15.78 ng/mL and 10.64 ng/mL and 15.18 ng/mL and 15.23 ng/mL and 12.10 ng/mL and 10.61 ng/mL and 19.81 ng/mL and 17.43 ng/mL and 10.27 ng/mL

Q: What about the “Concentration, individual subjects” value (clonazepam 2 mg oral, 2 h, one value per subject (A1-A6, A8, B1-B8; B5 consumed alcohol)) of the same compound?
A: 12.50 ng/mL and 15.87 ng/mL and 9.86 ng/mL and 9.89 ng/mL and 9.44 ng/mL and 15.05 ng/mL and 12.86 ng/mL and 14.31 ng/mL and 17.65 ng/mL and 9.65 ng/mL and 12.70 ng/mL and 17.45 ng/mL and 15.53 ng/mL and 10.12 ng/mL

Q: What about the “Concentration, individual subjects” value (clonazepam 2 mg oral, 3 h, one value per subject (A1-A6, A8, B1-B8; B5 consumed alcohol)) of the same compound?
A: 12.12 ng/mL and 13.58 ng/mL and 10.03 ng/mL and 10.75 ng/mL and 8.92 ng/mL and 14.20 ng/mL and 13.87 ng/mL and 14.07 ng/mL and 16.77 ng/mL and 11.10 ng/mL and 11.99 ng/mL and 17.52 ng/mL and 12.48 ng/mL and 10.36 ng/mL

Q: And the “Concentration, individual subjects” value (clonazepam 2 mg oral, 72 h, one value per subject (A1-A6, A8, B1-B8; B5 consumed alcohol))?
A: 3.01 ng/mL and 3.37 ng/mL and 4.29 ng/mL and 1.96 ng/mL and 2.81 ng/mL and 2.77 ng/mL and 3.55 ng/mL and 2.75 ng/mL and 3.60 ng/mL and 4.31 ng/mL and 3.99 ng/mL and 2.51 ng/mL and 3.02 ng/mL and 1.92 ng/mL

Q: And the “Concentration, individual subjects” value (clonazepam 2 mg oral, 96 h, one value per subject (A1-A6, A8, B1-B8; B5 consumed alcohol))?
A: 1.80 ng/mL and 1.86 ng/mL and 2.72 ng/mL and 1.22 ng/mL and 1.92 ng/mL and 1.68 ng/mL (2×) and 2.60 ng/mL and 1.45 ng/mL and 2.85 ng/mL and 2.43 ng/mL and 1.41 ng/mL and 1.01 ng/mL

Q: For `Cc1ncc2n1-c1ccc(Cl)cc1C(c1ccccc1F)=NC2` [Midazolam, midazolam], which half-life (human, Referent clinical, midazolam 15 mg tablet oral, N = 15, mean ±1 SD) is on record?
A: 3.74 ± 0.96 h

Q: What about the “Concentration, individual subjects” value (midazolam 15 mg oral, 0 h, one value per subject (columns A1-A8, B1-B7)) of the same compound?
A: 0.00 ng/mL

Q: And the “Concentration, individual subjects” value (midazolam 15 mg oral, 0.25 h, one value per subject (columns A1-A8, B1-B7))?
A: 11.33 ng/mL and 49.30 ng/mL and 31.63 ng/mL and 11.20 ng/mL and 10.52 ng/mL and 5.51 ng/mL and 12.92 ng/mL and 7.99 ng/mL and 0.00 ng/mL (2×) and 32.55 ng/mL and 3.56 ng/mL and 2.21 ng/mL and 2.75 ng/mL and 1.68 ng/mL

Q: And the “Concentration, individual subjects” value (midazolam 15 mg oral, 0.5 h, one value per subject (columns A1-A8, B1-B7))?
A: 53.19 ng/mL and 103.16 ng/mL and 124.33 ng/mL and 150.12 ng/mL and 87.17 ng/mL and 8.96 ng/mL and 93.49 ng/mL and 91.64 ng/mL and 85.93 ng/mL and 99.99 ng/mL and 121.73 ng/mL and 24.18 ng/mL and 15.68 ng/mL and 173.57 ng/mL and 119.95 ng/mL

Q: And the “Concentration, individual subjects” value (midazolam 15 mg oral, 1 h, one value per subject (columns A1-A8, B1-B7))?
A: 29.56 ng/mL and 42.98 ng/mL and 75.64 ng/mL and 65.70 ng/mL and 51.74 ng/mL and 68.51 ng/mL and 57.09 ng/mL and 34.56 ng/mL and 67.49 ng/mL and 41.79 ng/mL and 59.44 ng/mL and 55.30 ng/mL and 16.68 ng/mL and 111.37 ng/mL and 70.63 ng/mL

Q: And the “Concentration, individual subjects” value (midazolam 15 mg oral, 1.5 h, one value per subject (columns A1-A8, B1-B7))?
A: 42.43 ng/mL and 38.94 ng/mL and 45.93 ng/mL and 49.11 ng/mL and 42.49 ng/mL and 49.51 ng/mL and 52.60 ng/mL and 23.22 ng/mL and 68.83 ng/mL and 36.03 ng/mL and 42.37 ng/mL and 43.88 ng/mL and 47.01 ng/mL and 75.96 ng/mL and 43.80 ng/mL

Q: And the “Concentration, individual subjects” value (midazolam 15 mg oral, 2 h, one value per subject (columns A1-A8, B1-B7))?
A: 67.36 ng/mL and 43.93 ng/mL and 42.48 ng/mL and 35.22 ng/mL and 40.88 ng/mL and 56.04 ng/mL and 45.88 ng/mL and 20.89 ng/mL and 48.39 ng/mL and 41.26 ng/mL and 88.44 ng/mL and 33.26 ng/mL and 31.38 ng/mL and 84.58 ng/mL and 36.49 ng/mL

Q: What about the “Concentration, individual subjects” value (midazolam 15 mg oral, 12 h, one value per subject (columns A1-A8, B1-B7)) of the same compound?
A: 2.18 ng/mL and 4.42 ng/mL and 2.40 ng/mL and 1.94 ng/mL and 2.35 ng/mL and 1.38 ng/mL and 4.14 ng/mL and 0.51 ng/mL and 3.56 ng/mL and 8.21 ng/mL and 10.47 ng/mL

Q: What about the “Concentration, individual subjects” value (midazolam 15 mg oral, 24 h, one value per subject (columns A1-A8, B1-B7)) of the same compound?
A: 0.77 ng/mL and 0.00 ng/mL (9×) and 0.11 ng/mL and 0.63 ng/mL and 1.34 ng/mL and 1.56 ng/mL and 1.70 ng/mL
